Laboratory results: PubChem BioAssay AID977622 (Broad Institute, 2014)
Hit rate of the full screen: of about 1,900 compounds, fewer than 10 were called active. Another 39% or so got no clear call; they are omitted.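 Rule for the calls: active = Green signal of the normal strain falls at least twice as much as red signal of the resistant mutant, with overall culture growth loss under a set limit; inconclusive = no clear call, values can overlap the other calls; inactive = the rest.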 Only a part is listed here, and it is no random draw.

assay: wild-type E. coli growth inhibition versus h38 humanized strain – h38 mutant RFP, wild-type GFP, cherry-pick, dose response (AID 977622); conditions: E. coli WT ribosome GFP fluorescence, mixed culture, 24 h; at 50 µM (top of the series)

Activity change, negative = inhibition, inactive:
CN1OC[C@@H]2CN(C(=O)c3ccco3)[C@H](c3ccc(-c4ccc(C#N)cc4)cc3)C[C@@H]21 -3.66
C[C@H]1CN([C@@H](C)CO)C(=O)CCCn2nncc2CO[C@@H]1CN(C)Cc1ccccc1C(F)(F)F 0.129
CC1(C(=O)NS(=O)(=O)c2cccc(F)c2)CCN1C(=O)C1(c2ccc(Cl)cc2)CCC1 (centres undefined) -8.6
O=C(Nc1ccn(Cc2ccc(Cl)cc2)n1)c1ccccc1 -5.44
O=C(CCC(=O)N1CCN(c2ccc(F)cc2)CC1)c1ccc(F)cc1 1.29
COc1ccc(C2CC(c3ccc(Br)cc3)=NN2C(=O)CN2CCCC2)cc1 (centres undefined) -0.922
O=C(NCCCN1CCOCC1)c1sc2cc([N+](=O)[O-])ccc2c1Cl -5.45
C[C@@H]1CN([C@@H](C)CO)C(=O)c2cccc(NC(=O)c3nc4ccccc4s3)c2O[C@@H]1CN(C)CC1CC1 -4.26
COc1cc[n+]([O-])cc1[N+](=O)[O-] -1.72
COc1ccc(C(=O)COc2ccc(F)cc2)c(O)c1 -9.25
Cc1ccc(NS(=O)(=O)c2ccc3c(c2)CCC(=O)N3)cc1C -10.7
Cc1noc(C)c1S(=O)(=O)N(Cc1ccccc1)C(C)C -5.07
CC(NC(=O)c1ccc(CS(=O)(=O)c2ccc(Cl)cc2)o1)c1ccc2c(c1)OCCO2 (centres undefined) 10.6
C=CCN(c1ccccc1)S(=O)(=O)c1ccc(Cl)c(C(=O)OCC(=O)NCCCN2CCCC2=O)c1 -4.56
CCCN1C(=O)C(O)(c2c(C)[nH]c3ccccc23)c2ccccc21 (centres undefined) -8.52
CCOc1ccc(-c2nc(-c3cccs3)c(CC(=O)O)s2)cc1OC -8.31
COC(=O)c1cc(C)sc1NC(=O)CC1Nc2ccccc2NC1=O (centres undefined) 8.03
CCc1nnc(NC(=O)CSc2ncc(-c3ccccc3)[nH]2)s1 -5.52
COc1cccc(NC(=O)C2CCC(CNS(=O)(=O)c3cccc4cccnc34)CC2)c1 (centres undefined) -7.46
NS(=O)(=O)c1ccc(CCNC(=O)CCCCCNc2nc(=S)[nH]c3ccccc23)cc1 -8.09
COC(=O)c1nc(-c2ccc(C)cc2)[nH]c1C(C)(C)C -3.72
Cc1ccc(C(=O)NCC(=O)OCC(=O)Nc2cccc(S(=O)(=O)N3CCCC3)c2)cc1C -7.61
Fc1ccccc1C1CCN(Cc2nc(CC3CC3)no2)C1 (centres undefined) -4.21
CC1(c2ccc3ccccc3c2)NC(=O)N(CC(=O)N2CCN(c3ccccc3O)CC2)C1=O (centres undefined) -9.76
COc1ccc(CN2C(=O)CC(Cc3cc(C)cc(C)c3)C2=O)cc1OC (centres undefined) 5.15
Cc1cc2nc(SCC(=O)O)nc(C)c2cc1C -8.84
O=C(COC(=O)c1ccc(O)cc1)Nc1ccccc1 5.16
NC(=O)C1CCN(c2cc(Cl)ccc2[N+](=O)[O-])CC1 7.8
CCN(CC)S(=O)(=O)c1ccc(O)c(C(=O)OCC(=O)NC23CC4CC(CC(C4)C2)C3)c1 -3.51
Fc1ccc(-c2nc3c(Cl)cc(C(F)(F)F)cn3c2Cc2ccsc2)cc1 3.36
Cc1cc(C)cc(NS(=O)(=O)c2c(C(=O)N3CCCCCC3)c(C)n(C)c2C)c1 2.81
CCNc1nc(N)c(C(=O)C23CC4CC(CC(C4)C2)C3)s1 -5.98
COc1ccccc1CC(=O)NCCc1c[nH]c2ccccc12 -3.6
O=C(c1cccs1)c1c[nH]cc1-c1ccccc1 4.25
COCc1nnc(NC(=O)c2ccc(S(=O)(=O)N3CCCC3)cc2)o1 -3.2
Cc1cccc(N2CCN(Cc3nc(-c4ccc(F)cc4F)oc3C)CC2)n1 -5.91
O=C(Nc1cccc(Cl)c1)N1C[C@@H]2[C@H](c3ccccc31)[C@H](CO)N2Cc1ccncc1 -5.1
Cc1ncoc1C(=O)NCCC(c1ccccc1)c1ccccc1 -15.8
CCOC(=O)c1sc(Nc2cccc(Cl)c2)nc1C 1.1
O=C(NC1CCCCC1)C(c1cccc2ccccc12)n1c(=O)c(-c2ccco2)nc2ccccc21 (centres undefined) -4.51
O=C(O)CNC(=O)C(c1ccccc1)c1ccccc1 -1.41
CSc1ccccc1NC(=O)CN(c1cccc(C)c1)S(C)(=O)=O -9.25
COc1ccc(NS(=O)(=O)c2ccc(Cl)c(NC(=O)c3ccccc3F)c2)cc1 -11.4
CSc1ccc(CN(C)CC(=O)NC(C)c2ccccc2)cc1 (centres undefined) -1.1
O=C(c1cc(COc2ccc(F)cc2F)on1)N1CCCC(c2ccccc2)C1 (centres undefined) 5.75
CN(C)S(=O)(=O)c1cccc(C(=O)Nc2ccc(C(=O)Nc3cccc(S(N)(=O)=O)c3)cc2)c1 -4.39
O=C(CN(c1ccc(F)cc1)S(=O)(=O)c1ccccc1)Nc1ccccc1C(=O)O -6.83
O=C(CSc1nnc(COc2cccc3cccnc23)o1)c1ccc(F)cc1 -6.29
Cc1ccn2cc(-c3cccc(NC(=O)c4cccs4)c3)nc2c1 -3.23

Pulled by compound from above, three records:
Activity change, negative = inhibition, inactive:
Cc1ncoc1C(=O)NCCC(c1ccccc1)c1ccccc1 -15.8
CCCN1C(=O)C(O)(c2c(C)[nH]c3ccccc23)c2ccccc21 (centres undefined) -8.52
COc1ccccc1CC(=O)NCCc1c[nH]c2ccccc12 -3.6
